What all share (type): cell-based
One experiment deals with HL60 (leukemia). In words: In vitro cytotoxic activity MTT assay, HL60. To be noted: Homo sapiens, HL-60; HL60 (leukemia) cells, exposed for 96 hours; read-out: Cytotoxicity activity IC50 (50% inhibition of cell proliferation). Here is the method: (§1) Compounds 1-16 were screened for their in vitro cytotoxic activity utilizing a 3-(4,5-dimethyl-thiazol-2-yl)-2,5-diphenyltetrazolium bromide (MTT) assay against selected cancer human cell lines consisting of PC3 (prostate), HCT116 (colon), A375 (melanoma), H1299 (lung), MIAPaCa-2 (pancreas), HL60 (leukemia), MCF7 (breast), MDA-MB-231 (breast) (T. Mosmann, J. Immunol. Meth., 1983, 65, 55-63). The cells were cultured at 37° C. in RMPI1640 medium supplemented with 10% fetal bovine serum, 50 IU/mL penicillin, and 50 μg/mL streptomycin in a 5% CO2 incubator. All cells were sub-cultured 3 times/week by trypsinisation. Viable cells were seeded and allowed to adhere for 12 hours before a test drug was added in 96-well plates at an initial density of 1.0×10^5 cells/mL. Tumor cell lines were separately exposed to various concentrations of the tested compounds followed by incubation at a temperature of 37° C. during 96 hours inside a medium of fresh RMPI 1640. Cells were subsequently incubated at 37° C. using MTT at 0.5 mg/mL during 4 hours. After removal of supernatant, formazan crystals were dissolved in isopropanol and the optical density was measured at 570 nm. CX-4945 was used as a positive control.

The next experiment has as its system MIAPaCa-2 (pancreas). Nature of the experiment: In vitro cytotoxic activity MTT assay, MIAPaCa-2. To be noted: Homo sapiens, MIA PaCa-2; MIAPaCa-2 (pancreas) cells, exposed for 96 hours; read-out: Cytotoxicity activity IC50 (50% inhibition of cell proliferation). Here is the method:
as §1

The next experiment has as its system MCF7 (breast). Nature of the experiment: In vitro cytotoxic activity MTT assay, MCF7. To be noted: Homo sapiens; MCF7 (breast) cells, exposed for 96 hours; read-out: Cytotoxicity activity IC50 (50% inhibition of cell proliferation). The method, then:
as §1
(In general: Tetrazolium assays rely on reduction of a dye to a coloured formazan, in cell work by metabolically active cells.)

For a further experiment, the system named is A375 (melanoma). In words: In vitro cytotoxic activity MTT assay, A375. The following applies: Homo sapiens, A-375; A375 (melanoma) cells, exposed for 96 hours; read-out: Cytotoxicity activity IC50 (50% inhibition of cell proliferation). Here is the method: as §1
The subject of another experiment is H1299 (lung). In words: In vitro cytotoxic activity MTT assay, H1299. To be noted: Homo sapiens, NCI-H1299; H1299 (lung) cells, exposed for 96 hours; read-out: Cytotoxicity activity IC50 (50% inhibition of cell proliferation). Here is the method: as §1
The test system of another experiment is PC3 (prostate). In words: In vitro cytotoxic activity MTT assay, PC3. The following applies: Homo sapiens, Prostate cell; PC3 (prostate) cells, exposed for 96 hours; read-out: Cytotoxicity activity IC50 (50% inhibition of cell proliferation). The method, then: as §1
For the next experiment, the system named is MDA-MB-231 (breast). In words: In vitro cytotoxic activity MTT assay, MDA-MB-231. The following applies: Homo sapiens; MDA-MB-231 (breast) cells, exposed for 96 hours; read-out: Cytotoxicity activity IC50 (50% inhibition of cell proliferation). The method, then: as §1
Another experiment concerns HCT116 (colon). In words: In vitro cytotoxic activity MTT assay, HCT116. The following applies: Homo sapiens, HCT-116; HCT116 (colon) cells, exposed for 96 hours; read-out: Cytotoxicity activity IC50 (50% inhibition of cell proliferation). The method, then: as §1

Each structure is given as a SMILES string.

As to `O=C(O)c1ccc2c(c1)nc(Nc1cccc(Cl)c1)c1ccncc12` [CX-4945, Silmitasertib, reference compound], the IC50 in the experiment with HL60 (leukemia) was determined as 3.7 µM; with MIAPaCa-2 (pancreas) it was 1 µM; with MCF7 (breast) it was 9.1 µM; in the experiment with A375 (melanoma), 4.1 µM; with H1299 (lung), 2.3 µM; in the experiment with PC3 (prostate), 2 µM. For the same compound, the IC50 stood at 6.2 µM with MDA-MB-231 (breast) and 2.3 µM with HCT116 (colon).
